## Primary screen of a compound library

Chains of the proteins cited; added tags and fusions are not shown.
UniProt E9BF75, entry or part of it: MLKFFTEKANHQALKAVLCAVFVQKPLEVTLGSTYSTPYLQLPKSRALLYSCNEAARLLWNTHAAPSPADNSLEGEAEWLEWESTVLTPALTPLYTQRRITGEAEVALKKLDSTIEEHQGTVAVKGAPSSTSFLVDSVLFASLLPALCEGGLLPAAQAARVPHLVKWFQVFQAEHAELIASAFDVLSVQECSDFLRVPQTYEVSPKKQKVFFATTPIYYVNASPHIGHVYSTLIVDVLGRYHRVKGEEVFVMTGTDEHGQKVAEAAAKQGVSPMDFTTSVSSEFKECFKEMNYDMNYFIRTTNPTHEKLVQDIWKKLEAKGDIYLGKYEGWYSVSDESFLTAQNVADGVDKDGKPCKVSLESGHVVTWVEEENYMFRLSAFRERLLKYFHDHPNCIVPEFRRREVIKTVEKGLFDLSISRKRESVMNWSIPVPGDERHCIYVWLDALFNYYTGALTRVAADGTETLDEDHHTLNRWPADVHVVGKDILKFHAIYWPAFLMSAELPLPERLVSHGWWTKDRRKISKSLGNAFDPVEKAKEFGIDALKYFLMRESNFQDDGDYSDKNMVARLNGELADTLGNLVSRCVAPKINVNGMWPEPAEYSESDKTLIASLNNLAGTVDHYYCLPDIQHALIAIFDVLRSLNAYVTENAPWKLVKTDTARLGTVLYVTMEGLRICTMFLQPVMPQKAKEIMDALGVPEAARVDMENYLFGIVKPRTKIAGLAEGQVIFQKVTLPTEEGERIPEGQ

The values are deposited in ChEMBL (CHEMBL3988442, “University of Dundee, Small-Polar-MMV Screening Library” (2021)).

Mtb heat-shock: 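Assay on Mycobacterium tuberculosis, filed only as a heat shock assay from Cornell; the read-out is not stated. The concentration is filed as 10 mM, unlikely as a test dose, so the dose is not known. The record gives no direction; compounds that gave an IC50 in retests scored well above the rest, so higher reads as stronger inhibition. Of about 69,000 compounds tested this way, about 930 (1.4%) reached 50% or more in at least one test.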
LdMetRS: 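Methionyl-tRNA synthetase (putative), Leishmania donovani (UniProt E9BF75). Primary screen of methionyl-tRNA synthetase; the read-out is not stated. The test concentration is not given. The values are filed as inhibition. Size under these conditions: about 68,000 compounds, about 24 of them at 50% or above in at least one test.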
Mtb growth Cornell: 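Whole-cell assay for inhibitors of Mycobacterium tuberculosis growth, labelled Cornell in the record; the read-out is not stated. The concentration is filed as 10 mM, unlikely as a test dose, so the dose is not known. The record gives no direction; compounds strong in two other growth screens of this library score well above the rest, so higher reads as stronger inhibition. Of about 53,000 compounds tested this way, about 900 (1.7%) reached 50% or more in at least one test.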

All values are in %.
The controls that fix the scale are not given in the record; negative values are as filed.
The compounds are a random part of those screened.
A dash means the value is not listed here; it may have been measured.

SMILES,Mtb heat-shock,LdMetRS,Mtb growth Cornell
Cc1nn(C)c(Cl)c1C1CCCN1C(=O)c1ccc2nncn2c1 (stereo not drawn),-1.867%,-2.614%,-21.03%
O=C(O)C(F)(F)F.[H][C@@]12CN(Cc3ccoc3)CCC[C@]1(C(=O)O)CN(c1ncccn1)C2,-13.73%,-,25.38%
CC(C)NC(=O)CCNC(=O)c1cc(Br)cn1C(C)C,5.813%,3.261%,-16.96%
CC(C)(C)C(=O)NC(c1nccs1)C1CCN(CC2CCCCC2)CC1.Cl (stereo not drawn),4.524%,-,-6.152%
Cc1nc2c(c(NCCNC(=O)C(C)C)n1)Cc1ccccc1OC2,-19.99%,19.81%,-9.562%
CCCS(=O)(=O)N1CCOCC2(CCN(c3ccccn3)C2)C1 (stereo not drawn),-,5.394%,-
Cc1ccc(O)c(CNc2cccc(CN3CCSCC3)c2)n1,-18.49%,10.64%,0.7801%
CCc1noc(CSc2n[nH]c(-c3ccccn3)n2)n1,92.11%,10.99%,26.18%
O=C(NCC1CC1)[C@H]1C[C@H]2OCC[C@H]2N(CCc2ccccc2)C1,-,14.48%,-
Cc1cc(C)n(CC2CN(Cc3nc(-c4ccoc4)no3)CCO2)n1 (stereo not drawn),5.6%,13.07%,6.398%
COc1ccc(Br)c(NC(=O)NCc2ncnn2C)c1,-1.64%,5.866%,-5.732%
CCCc1nccn1-c1ccncc1,1.009%,8.099%,14.29%
Cc1csc(N2CCCN(C(=O)c3ccoc3C)CC2)n1,-21.1%,25.14%,-49.98%
Cc1nc(CN2CCn3cc(CNC(=O)C4CCC4)nc3C2)cs1.O=C(O)C(F)(F)F,37.65%,-,26.48%
Cc1cccc(C(C)(C)CNc2cn[nH]c(=O)c2Cl)c1,-12.69%,12.1%,12.78%
O=C(O)C(F)(F)F.[H][C@@]12CCN(c3ccc(C)nn3)C[C@]1([H])O[C@H](C(=O)N1CCOCC1)C2,9.789%,-,30.7%
CCC(CNC(=O)c1nc(=O)[nH][nH]1)Oc1cccc(C(F)(F)F)c1 (stereo not drawn),-14.12%,16.4%,39.52%
Cc1cc(CN2C[C@@H]3COC[C@]3(CNC(=O)N3CCCC3)C2)no1,-,16.19%,-
O=C(Nc1cccnc1)[C@H]1C[C@H]2OCC[C@H]2N(C(=O)c2ccsc2)C1,-,13.3%,-
COc1cc2c(cc1CNC(Cc1cccs1)c1nccs1)OCO2.Cl (stereo not drawn),3.206%,-,-10.76%
CCn1c(CN2CCCC2)nnc1C1CCN(Cc2cc(C)no2)CC1,-46.77%,16.67%,-11.32%
CC(C)n1cnc2c1C(C(=O)N1CCCC1)N(CC1CC1)CC2 (stereo not drawn),-,-8.772%,-
COCCN(Cc1ccccn1)C(=O)C1CCCCCN1C (stereo not drawn),12.79%,21.61%,-29.12%
CN1CCN(C(=O)N2CC[C@@](O)(c3ccccc3)[C@H]3CCCC[C@@H]32)CC1,-,15.81%,-
CC1CCN(c2ccc(NC(=O)CCn3cccn3)cc2)CC1,12.32%,12.14%,39.3%
c1cncc(OC[C@@H]2CCC[C@@]23CNCCO3)c1,-,3.03%,-
O=S(=O)(CCN1CCCCC1Cn1cccn1)c1ccccc1 (stereo not drawn),27.92%,11.63%,43.78%
Cc1nc(CNC(=O)c2oc3ccccc3c2CN(C)C)oc1C,-12.88%,8.289%,-
CC1(C(=O)NCc2cc(F)cc(F)c2)CCOCC1,18.24%,-6.286%,-
CC(=O)N[C@@H]1CN(Cc2oc3ccccc3c2C)C[C@H]1c1ccc(C)o1,8.645%,13.36%,-7.753%
CN(Cc1cccnc1)CC1CC12CCN(c1nncs1)CC2 (stereo not drawn),-,6.574%,-
Cc1ncc2c(n1)CCCC2NC(=O)c1ccccc1C(=O)O (stereo not drawn),3.544%,18.28%,-21.02%
Cn1ncc2c1C(COCC1CC1)CN(C(=O)c1cscn1)C2.O=C(O)C(F)(F)F (stereo not drawn),-18.46%,-,11.05%
Cc1ccc2[nH]c(=O)cc(C(=O)NCCCn3nccc3C3CC3)c2c1,-1.329%,10.8%,-11.11%
Cc1cc(NC(=O)NC2CCN(C(C)C)CC2)c2ncccc2c1,-10.82%,16.77%,14.8%
CC(=O)N1CCC2(CC1)CNc1ccc(F)cc12,17.92%,2.439%,2.582%
O=C(Cc1ccn[nH]1)Nc1cncc(Br)c1O,2.04%,23.12%,104.6%
C=C(C)COCCNC(=O)N1CCc2c(cccc2OC)C1,-13.87%,5.205%,-
O=C(NCC1CC(=O)N(CCc2ccccc2)C1)c1ccon1 (stereo not drawn),-2.628%,7.143%,-
COC(=O)CC1CN(Cc2ccn(-c3ccc(F)cc3)n2)CCO1 (stereo not drawn),-145.8%,10.57%,-
OC1CCN(c2ccc(CNc3nc4ccccc4o3)cc2F)CC1,-12.88%,9.023%,-
CCOc1ncnc2c1CCN(c1cc(C(F)(F)F)ncn1)CC2,-5.828%,10.75%,15.48%
COc1ccc(OC(F)F)c(NCC(=O)NCC(=O)N2CCCC2)c1,15.1%,6.977%,14.52%
[H][C@]12CCN(C(=O)NC3CCCC3)CC[C@@]1([H])S(=O)(=O)N(CC(C)C)C2,0.6195%,-,15.88%
CNC(=O)CN1CCO[C@H]2CN(CC3CCOCC3)C[C@H]21,-,12.28%,-
CNC(=O)CC1CCN(C(=O)NCc2coc3ccccc23)CC1,6.296%,7.246%,-39.33%
Cc1nnc2n1CCN(C(=O)c1cnc3c(cnn3C(C)C)c1)C2,-23.91%,6.774%,-26.53%
COC(=O)c1ccn(CC(=O)Nc2nn(CC3CC3)c3ccccc23)n1,-6.878%,12.11%,50.91%
CN(C)C(=O)COCC1CN(Cc2ccoc2)Cc2ncn(C)c21.O=C(O)C(F)(F)F.O=C(O)C(F)(F)F (stereo not drawn),-26.5%,-,-
Cc1cc(CN2C[C@H](N3CCOCC3)[C@@H]3OCCC[C@@H]32)oc1C,-,9.966%,-
Cc1ncc(C(=O)N2CCC(C(=O)NC3CCCC3)C2)c(C)n1 (stereo not drawn),-2.223%,9.688%,13.82%
Cc1cc(-n2c(C)cn(CN(C)Cc3ccccc3)c2=O)no1,-9.263%,4.313%,6.706%
CC(C)COc1cncc(NC(CO)c2ccco2)n1 (stereo not drawn),-52.43%,7.326%,-
CC1CCCN(C(=O)c2csc(S(N)(=O)=O)c2)CC1 (stereo not drawn),-13.76%,13.01%,9.596%
COCCN1CCc2cc(C(=O)NC(C)C)c(NCC3CC3)nc2CC1,-,16.75%,-
Cc1ccc(C(=O)N2CCC3(CC2)CCN(CCN(C)C)C3=O)cn1,-,15.82%,-
O=C(O)C(F)(F)F.O=C(O)C(F)(F)F.[H][C@@]12OCCN(Cc3ccoc3)[C@@]1([H])CCC2COCc1cccnc1 (stereo partly drawn),-9.464%,-,-21.76%
NCc1cn(CC2CCCN(C(=O)CC3=CCCCC3)C2)nn1 (stereo not drawn),15.03%,12.93%,-0.0309%
CN(CC1(CO)CCOCC1)[C@@H]1c2ccccc2C2(CCNCC2)[C@H]1O,-17.63%,2.089%,-16.07%
[H][C@@]12OCCN(S(=O)(=O)C3CC3)[C@@]1([H])CC[C@H]2OCC1CCCC1,3.154%,-,30.58%
O=c1cc(Cn2cncn2)nc2n1CCCN(CC1CC1)C2,0.645%,12.45%,13.2%
Cc1ccccc1OCC(=O)NCC(c1ccc(N(C)C)cc1)N(C)C (stereo not drawn),-25.62%,4.194%,-
COCCC(=O)N1CCC2(COCc3cnc(N4CCOCC4)nc32)C1 (stereo not drawn),12.3%,14.29%,-
COc1cccc([C@@H]2CN(C3CSCCSC3)C[C@H]2C(=O)O)c1,7.857%,15.78%,-
O=C1CC[C@H]2CN(C3CCOCC3)CC[C@H]2N1CCC1=CCCCC1,-,13.97%,-
Cn1cncc1C(=O)N1CCOC2(COCCN(CC3CC3)C2)C1.O=C(O)C(F)(F)F (stereo not drawn),41.2%,-,-8.298%
COc1ccc(C(=O)NCCc2nnc3ccccn23)c(OC)c1,-4.548%,1.389%,-
Cc1ccc(CC(=O)N2CCc3nnc(N(C)C)cc3C2)s1,-2.617%,16.71%,-
COCc1nc2n(n1)CCCC2Nc1nc(C2CC2)ns1 (stereo not drawn),10.15%,17.56%,12.1%
O=C(O)C(F)(F)F.[H][C@]12CCCN(Cc3cccs3)[C@@]1([H])CN(S(C)(=O)=O)C2,-33.81%,-,4.028%
Cc1nc(C)c(C)c(NCc2cnn3cccnc23)n1,-22.16%,8.871%,-50.02%
O=C(NC1CCCC1)O[C@H]1COCCN(c2nc3ccccc3o2)C1,-25.43%,5.495%,-
CCn1ncc2c1CCCC2NCc1ccc(OC)c(C)c1 (stereo not drawn),5.848%,11.74%,25.04%
Cc1ccc(-c2cc(CN3CCc4cnc(C)nc4C3)on2)cc1,3.067%,10.08%,4.597%
COc1ccc2[nH]nc(CN3CCC(C(C)N4CCCC4)CC3)c2c1 (stereo not drawn),11.88%,16%,-

Some entries from above, unchanged:

{"smiles": "CC(C)NC(=O)CCNC(=O)c1cc(Br)cn1C(C)C", "Mtb heat-shock": 5.813, "LdMetRS": 3.261, "Mtb growth Cornell": -16.96}
{"smiles": "CN(C)C(=O)COCC1CN(Cc2ccoc2)Cc2ncn(C)c21.O=C(O)C(F)(F)F.O=C(O)C(F)(F)F", "stereo": "stereo not drawn", "Mtb heat-shock": -26.5}
{"smiles": "CCOc1ncnc2c1CCN(c1cc(C(F)(F)F)ncn1)CC2", "Mtb heat-shock": -5.828, "LdMetRS": 10.75, "Mtb growth Cornell": 15.48}
{"smiles": "COc1ccc(C(=O)NCCc2nnc3ccccn23)c(OC)c1", "Mtb heat-shock": -4.548, "LdMetRS": 1.389}
{"smiles": "COc1cccc([C@@H]2CN(C3CSCCSC3)C[C@H]2C(=O)O)c1", "Mtb heat-shock": 7.857, "LdMetRS": 15.78}
{"smiles": "Cc1cc(-n2c(C)cn(CN(C)Cc3ccccc3)c2=O)no1", "Mtb heat-shock": -9.263, "LdMetRS": 4.313, "Mtb growth Cornell": 6.706}
{"smiles": "Cc1cccc(C(C)(C)CNc2cn[nH]c(=O)c2Cl)c1", "Mtb heat-shock": -12.69, "LdMetRS": 12.1, "Mtb growth Cornell": 12.78}
{"smiles": "Cc1cc(C)n(CC2CN(Cc3nc(-c4ccoc4)no3)CCO2)n1", "stereo": "stereo not drawn", "Mtb heat-shock": 5.6, "LdMetRS": 13.07, "Mtb growth Cornell": 6.398}
{"smiles": "O=c1cc(Cn2cncn2)nc2n1CCCN(CC1CC1)C2", "Mtb heat-shock": 0.645, "LdMetRS": 12.45, "Mtb growth Cornell": 13.2}